PubChem BioAssay AID1053208 – Peter MacCallum Cancer Centre | 2014
This is an unselected part of about 17,000 reagents. Over the whole deposit, 788 (4.7%) are marked active. 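Calls rest on z-score classes alone; an extra cut-off of viability at most 70% of control was not applied to them.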 Unmarked entries are inactive. The numbers tell different reagents against one gene apart. Reagent sequences are not shown.

Test: 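Genes whose silencing cuts survival of bone tumour cells only with doxorubicin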 (primary screen)
Cell system: mouse osteosarcoma cells, early-passage culture from an engineered mouse model of fibroblastic bone tumour
Reagent: siRNA pool against mouse genes, 40 nM
Time to read-out: about 120 h (48 h before drug, then 72 h with drug)
Challenge: doxorubicin 100 nM for 72 h, roughly 30-40% inhibitory dose
Measured: 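Viability read as ATP luminescence after 72 h of 100 nM doxorubicin or none, duplicate wells averaged, scaled to non-targeting siRNA, then expressed as robust z-scores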
Reading the numbers: viability z-score with doxorubicin and doxorubicin viability vs non-targeting: higher = more viable cells under doxorubicin; viability z-score without drug: higher = more viable cells with knock-down alone; z-score of drug to no-drug ratio: higher = less drug sensitisation by knock-down
Call rule: 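Called active if knock-down leaves viability unchanged without drug (z within -2 to 2) but lowers it with doxorubicin (z at or under -2)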

| Gene | reagent | combined z-score class | viability z-score with doxorubicin | viability z-score without drug | z-score of drug to no-drug ratio | doxorubicin viability vs non-targeting |
| --- | --- | --- | --- | --- | --- | --- |
| Carf | 1 | no change with or without drug | 0.9 | 1.52 | 0 | 1.02 |
| Tor1aip2 | 1 | no change with or without drug | 1.12 | -0.17 | 1.46 | 1.04 |
| Tor1aip2 | 2 | no change with or without drug | -0.67 | 0.84 | -1.12 | 0.88 |
| Igsf6 | 1 | no change with or without drug | -0.9 | -0.17 | -0.79 | 0.86 |
| Snx11 | 1 | no change with or without drug | -1.57 | -1.52 | -0.56 | 0.8 |
| Col5a2 | 1 | no change with or without drug | 1.12 | 1.85 | 0 | 1.04 |
| Notch3 | 1 | no change with or without drug | 0.67 | -0.84 | 1.46 | 1 |
| Fbxw4 | 1 | no change with or without drug | 1.12 | 0.51 | 0.9 | 1.04 |
| P4hb | 1 | no change with or without drug | -0.34 | -1.35 | 0.79 | 0.91 |
| 5930422O12Rik | 1 | no change with or without drug | -0.34 | 0.51 | -0.56 | 0.91 |
| Spata21 | 1 | high cell count without drug only | 1.57 | 2.53 | 0 | 1.08 |
| Or6c209 | 1 | no change with or without drug | -0.67 | -0.51 | -0.22 | 0.88 |
| Defa-rs10 | 1 | no change with or without drug | -0.79 | -0.67 | -0.22 | 0.87 |
| Tbc1d20 | 1 | no change with or without drug | 0.9 | 0.67 | 0.56 | 1.02 |
| Hpgds | 1 | no change with or without drug | 1.35 | 0 | 1.57 | 1.06 |

5 of these entries, set out differently.
{"Gene":"P4hb","reagent":1,"combined z-score class":"no change with or without drug","viability z-score with doxorubicin":-0.34,"viability z-score without drug":-1.35,"z-score of drug to no-drug ratio":0.79,"doxorubicin viability vs non-targeting":0.91}
{"Gene":"5930422O12Rik","reagent":1,"combined z-score class":"no change with or without drug","viability z-score with doxorubicin":-0.34,"viability z-score without drug":0.51,"z-score of drug to no-drug ratio":-0.56,"doxorubicin viability vs non-targeting":0.91}
{"Gene":"Spata21","reagent":1,"combined z-score class":"high cell count without drug only","viability z-score with doxorubicin":1.57,"viability z-score without drug":2.53,"z-score of drug to no-drug ratio":0,"doxorubicin viability vs non-targeting":1.08}
{"Gene":"Or6c209","reagent":1,"combined z-score class":"no change with or without drug","viability z-score with doxorubicin":-0.67,"viability z-score without drug":-0.51,"z-score of drug to no-drug ratio":-0.22,"doxorubicin viability vs non-targeting":0.88}
{"Gene":"Defa-rs10","reagent":1,"combined z-score class":"no change with or without drug","viability z-score with doxorubicin":-0.79,"viability z-score without drug":-0.67,"z-score of drug to no-drug ratio":-0.22,"doxorubicin viability vs non-targeting":0.87}

Additional entries follow:
| Gene | reagent | combined z-score class | viability z-score with doxorubicin | viability z-score without drug | z-score of drug to no-drug ratio | doxorubicin viability vs non-targeting |
| --- | --- | --- | --- | --- | --- | --- |
| Pde1a | 1 | no change with or without drug | -0.67 | -1.18 | 0.22 | 0.88 |
| Kcnh8 | 1 | no change with or without drug | 0 | 0.51 | -0.22 | 0.94 |
| Gtf2f1 | 1 | no change with or without drug | -1.57 | 0 | -1.57 | 0.8 |
| Col5a3 | 1 | high cell count without drug only | 0.11 | 2.53 | -1.35 | 0.95 |
| Kctd12b | 1 | no change with or without drug | -0.9 | -1.01 | -0.11 | 0.86 |
| Prom1 | 1 | no change with or without drug | 0.79 | 0.51 | 0.56 | 1.01 |
| Tfap2a | 1 | high cell count without drug only | 1.12 | 2.19 | -0.22 | 1.04 |
| Csn1s2b | 1 | no change with or without drug | 0.45 | 1.52 | -0.45 | 0.98 |
| Polr2d | 1 | low cell count with and without drug | -4.72 | -6.58 | -0.56 | 0.52 |
| Serpinb9b | 1 | no change with or without drug | -0.22 | 0.51 | -0.45 | 0.92 |
| Eif4e3 | 1 | no change with or without drug | 0.22 | 0.51 | 0 | 0.96 |
| Tec | 1 | no change with or without drug | 1.12 | 0.17 | 1.12 | 1.04 |
| Gnrhr | 1 | no change with or without drug | 0.22 | 0.17 | 0.22 | 0.96 |
| Sema5a | 1 | no change with or without drug | -0.22 | 0 | -0.11 | 0.92 |
| Prm2 | 1 | no change with or without drug | -1.12 | 1.18 | -1.8 | 0.84 |
| Dpp3 | 1 | no change with or without drug | 1.57 | -0.17 | 1.91 | 1.08 |
| Insl3 | 1 | no change with or without drug | 1.46 | 1.52 | 0.56 | 1.07 |
| Pgm3 | 1 | no change with or without drug | -1.35 | 0.51 | -1.57 | 0.82 |
| Rnf151 | 1 | no change with or without drug | 1.12 | -0.17 | 1.46 | 1.04 |
